Assay results from the supplement of paper PMC10849652.
This is one part of the list.

Protein sequences, listed by entry. Tags and fused reporters are not part of them. Lines headed by an entry give the natural chain unless they say otherwise; changes in a name come on top.
UniProt Q9NVN3: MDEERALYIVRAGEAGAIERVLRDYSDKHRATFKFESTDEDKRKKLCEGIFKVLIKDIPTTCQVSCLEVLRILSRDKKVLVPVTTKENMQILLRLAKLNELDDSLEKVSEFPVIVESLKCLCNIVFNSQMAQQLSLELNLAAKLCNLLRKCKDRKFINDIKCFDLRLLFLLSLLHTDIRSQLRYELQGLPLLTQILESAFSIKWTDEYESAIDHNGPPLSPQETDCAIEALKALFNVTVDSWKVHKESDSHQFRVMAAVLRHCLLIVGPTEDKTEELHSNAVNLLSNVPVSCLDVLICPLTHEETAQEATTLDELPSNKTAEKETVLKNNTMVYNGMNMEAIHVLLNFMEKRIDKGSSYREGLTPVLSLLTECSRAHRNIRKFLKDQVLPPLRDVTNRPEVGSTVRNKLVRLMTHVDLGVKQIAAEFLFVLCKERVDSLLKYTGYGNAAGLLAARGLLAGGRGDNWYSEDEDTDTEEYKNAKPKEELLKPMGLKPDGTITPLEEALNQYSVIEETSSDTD
UniProt P15927: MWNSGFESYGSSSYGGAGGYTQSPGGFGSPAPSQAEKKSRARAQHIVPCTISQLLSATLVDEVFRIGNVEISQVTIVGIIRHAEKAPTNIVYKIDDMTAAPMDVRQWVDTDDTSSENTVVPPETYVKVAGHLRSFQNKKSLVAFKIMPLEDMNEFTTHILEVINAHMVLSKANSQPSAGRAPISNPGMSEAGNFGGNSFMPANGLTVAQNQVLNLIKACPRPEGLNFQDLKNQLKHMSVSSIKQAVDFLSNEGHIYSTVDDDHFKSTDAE
UniProt P84095: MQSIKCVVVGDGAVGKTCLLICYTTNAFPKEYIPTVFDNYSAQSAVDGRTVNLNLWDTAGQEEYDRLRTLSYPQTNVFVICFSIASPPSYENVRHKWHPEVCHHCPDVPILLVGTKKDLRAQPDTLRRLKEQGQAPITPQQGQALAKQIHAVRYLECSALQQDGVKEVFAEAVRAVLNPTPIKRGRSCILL
UniProt Q8IXW5, whole entry, looked up: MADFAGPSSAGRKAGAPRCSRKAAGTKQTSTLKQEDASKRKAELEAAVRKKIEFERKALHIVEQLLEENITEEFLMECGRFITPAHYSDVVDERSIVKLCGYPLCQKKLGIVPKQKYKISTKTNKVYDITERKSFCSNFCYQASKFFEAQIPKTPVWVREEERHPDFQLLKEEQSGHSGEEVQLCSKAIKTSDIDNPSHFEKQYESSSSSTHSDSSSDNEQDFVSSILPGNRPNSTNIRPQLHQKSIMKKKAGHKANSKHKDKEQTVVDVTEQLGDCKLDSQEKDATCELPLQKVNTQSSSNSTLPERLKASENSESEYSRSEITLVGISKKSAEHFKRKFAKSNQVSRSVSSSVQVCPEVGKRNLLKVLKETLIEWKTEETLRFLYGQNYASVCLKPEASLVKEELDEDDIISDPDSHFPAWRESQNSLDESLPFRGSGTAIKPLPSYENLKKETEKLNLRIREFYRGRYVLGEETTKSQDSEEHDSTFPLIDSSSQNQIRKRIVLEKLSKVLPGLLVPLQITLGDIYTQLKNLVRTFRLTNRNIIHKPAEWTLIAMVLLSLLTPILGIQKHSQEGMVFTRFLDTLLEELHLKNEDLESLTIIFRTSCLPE
UniProt P08134, whole entry, looked up: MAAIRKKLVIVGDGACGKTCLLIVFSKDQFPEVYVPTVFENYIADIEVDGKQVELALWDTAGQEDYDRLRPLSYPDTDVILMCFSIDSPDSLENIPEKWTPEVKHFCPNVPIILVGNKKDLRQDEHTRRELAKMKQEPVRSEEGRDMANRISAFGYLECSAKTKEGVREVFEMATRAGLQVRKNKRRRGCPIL
UniProt Q969K3: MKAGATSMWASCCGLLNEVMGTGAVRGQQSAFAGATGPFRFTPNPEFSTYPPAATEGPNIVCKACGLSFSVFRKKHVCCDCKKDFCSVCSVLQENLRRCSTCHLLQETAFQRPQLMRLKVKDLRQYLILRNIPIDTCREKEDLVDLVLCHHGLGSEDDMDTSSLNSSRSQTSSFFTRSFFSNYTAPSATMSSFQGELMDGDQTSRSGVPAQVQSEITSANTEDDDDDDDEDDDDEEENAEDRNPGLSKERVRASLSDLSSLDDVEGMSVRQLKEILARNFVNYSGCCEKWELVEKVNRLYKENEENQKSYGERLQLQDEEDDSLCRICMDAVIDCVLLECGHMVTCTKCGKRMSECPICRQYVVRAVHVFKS
UniProt Q8IXI2: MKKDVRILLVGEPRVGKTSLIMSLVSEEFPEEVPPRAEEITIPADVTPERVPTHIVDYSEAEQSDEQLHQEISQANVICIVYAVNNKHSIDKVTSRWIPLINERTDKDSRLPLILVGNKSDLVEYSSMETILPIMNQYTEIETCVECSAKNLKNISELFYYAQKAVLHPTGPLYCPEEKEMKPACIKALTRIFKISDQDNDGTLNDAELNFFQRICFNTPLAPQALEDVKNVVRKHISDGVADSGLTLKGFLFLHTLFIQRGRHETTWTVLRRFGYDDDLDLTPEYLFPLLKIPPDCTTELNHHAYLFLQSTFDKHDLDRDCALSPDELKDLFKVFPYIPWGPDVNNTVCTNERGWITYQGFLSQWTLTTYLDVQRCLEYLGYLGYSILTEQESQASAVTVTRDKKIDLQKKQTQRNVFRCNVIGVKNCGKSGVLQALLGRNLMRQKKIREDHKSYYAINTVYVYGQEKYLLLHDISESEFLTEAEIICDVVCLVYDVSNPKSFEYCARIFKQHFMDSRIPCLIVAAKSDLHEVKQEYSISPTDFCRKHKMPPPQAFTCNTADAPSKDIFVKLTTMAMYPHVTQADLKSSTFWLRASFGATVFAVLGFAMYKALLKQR
UniProt Q9UBF6, whole entry, looked up: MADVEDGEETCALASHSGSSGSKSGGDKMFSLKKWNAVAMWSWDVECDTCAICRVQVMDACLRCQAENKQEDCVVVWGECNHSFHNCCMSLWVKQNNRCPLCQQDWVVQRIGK
UniProt Q9H920: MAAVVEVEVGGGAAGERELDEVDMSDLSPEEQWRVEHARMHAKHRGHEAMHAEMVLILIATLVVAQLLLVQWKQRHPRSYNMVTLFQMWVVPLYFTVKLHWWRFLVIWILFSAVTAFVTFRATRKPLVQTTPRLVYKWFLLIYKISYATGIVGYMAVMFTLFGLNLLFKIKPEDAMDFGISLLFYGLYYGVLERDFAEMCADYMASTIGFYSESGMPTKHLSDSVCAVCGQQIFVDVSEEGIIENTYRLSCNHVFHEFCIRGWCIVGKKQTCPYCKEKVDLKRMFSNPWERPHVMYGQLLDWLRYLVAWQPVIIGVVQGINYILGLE
UniProt Q5UIP0: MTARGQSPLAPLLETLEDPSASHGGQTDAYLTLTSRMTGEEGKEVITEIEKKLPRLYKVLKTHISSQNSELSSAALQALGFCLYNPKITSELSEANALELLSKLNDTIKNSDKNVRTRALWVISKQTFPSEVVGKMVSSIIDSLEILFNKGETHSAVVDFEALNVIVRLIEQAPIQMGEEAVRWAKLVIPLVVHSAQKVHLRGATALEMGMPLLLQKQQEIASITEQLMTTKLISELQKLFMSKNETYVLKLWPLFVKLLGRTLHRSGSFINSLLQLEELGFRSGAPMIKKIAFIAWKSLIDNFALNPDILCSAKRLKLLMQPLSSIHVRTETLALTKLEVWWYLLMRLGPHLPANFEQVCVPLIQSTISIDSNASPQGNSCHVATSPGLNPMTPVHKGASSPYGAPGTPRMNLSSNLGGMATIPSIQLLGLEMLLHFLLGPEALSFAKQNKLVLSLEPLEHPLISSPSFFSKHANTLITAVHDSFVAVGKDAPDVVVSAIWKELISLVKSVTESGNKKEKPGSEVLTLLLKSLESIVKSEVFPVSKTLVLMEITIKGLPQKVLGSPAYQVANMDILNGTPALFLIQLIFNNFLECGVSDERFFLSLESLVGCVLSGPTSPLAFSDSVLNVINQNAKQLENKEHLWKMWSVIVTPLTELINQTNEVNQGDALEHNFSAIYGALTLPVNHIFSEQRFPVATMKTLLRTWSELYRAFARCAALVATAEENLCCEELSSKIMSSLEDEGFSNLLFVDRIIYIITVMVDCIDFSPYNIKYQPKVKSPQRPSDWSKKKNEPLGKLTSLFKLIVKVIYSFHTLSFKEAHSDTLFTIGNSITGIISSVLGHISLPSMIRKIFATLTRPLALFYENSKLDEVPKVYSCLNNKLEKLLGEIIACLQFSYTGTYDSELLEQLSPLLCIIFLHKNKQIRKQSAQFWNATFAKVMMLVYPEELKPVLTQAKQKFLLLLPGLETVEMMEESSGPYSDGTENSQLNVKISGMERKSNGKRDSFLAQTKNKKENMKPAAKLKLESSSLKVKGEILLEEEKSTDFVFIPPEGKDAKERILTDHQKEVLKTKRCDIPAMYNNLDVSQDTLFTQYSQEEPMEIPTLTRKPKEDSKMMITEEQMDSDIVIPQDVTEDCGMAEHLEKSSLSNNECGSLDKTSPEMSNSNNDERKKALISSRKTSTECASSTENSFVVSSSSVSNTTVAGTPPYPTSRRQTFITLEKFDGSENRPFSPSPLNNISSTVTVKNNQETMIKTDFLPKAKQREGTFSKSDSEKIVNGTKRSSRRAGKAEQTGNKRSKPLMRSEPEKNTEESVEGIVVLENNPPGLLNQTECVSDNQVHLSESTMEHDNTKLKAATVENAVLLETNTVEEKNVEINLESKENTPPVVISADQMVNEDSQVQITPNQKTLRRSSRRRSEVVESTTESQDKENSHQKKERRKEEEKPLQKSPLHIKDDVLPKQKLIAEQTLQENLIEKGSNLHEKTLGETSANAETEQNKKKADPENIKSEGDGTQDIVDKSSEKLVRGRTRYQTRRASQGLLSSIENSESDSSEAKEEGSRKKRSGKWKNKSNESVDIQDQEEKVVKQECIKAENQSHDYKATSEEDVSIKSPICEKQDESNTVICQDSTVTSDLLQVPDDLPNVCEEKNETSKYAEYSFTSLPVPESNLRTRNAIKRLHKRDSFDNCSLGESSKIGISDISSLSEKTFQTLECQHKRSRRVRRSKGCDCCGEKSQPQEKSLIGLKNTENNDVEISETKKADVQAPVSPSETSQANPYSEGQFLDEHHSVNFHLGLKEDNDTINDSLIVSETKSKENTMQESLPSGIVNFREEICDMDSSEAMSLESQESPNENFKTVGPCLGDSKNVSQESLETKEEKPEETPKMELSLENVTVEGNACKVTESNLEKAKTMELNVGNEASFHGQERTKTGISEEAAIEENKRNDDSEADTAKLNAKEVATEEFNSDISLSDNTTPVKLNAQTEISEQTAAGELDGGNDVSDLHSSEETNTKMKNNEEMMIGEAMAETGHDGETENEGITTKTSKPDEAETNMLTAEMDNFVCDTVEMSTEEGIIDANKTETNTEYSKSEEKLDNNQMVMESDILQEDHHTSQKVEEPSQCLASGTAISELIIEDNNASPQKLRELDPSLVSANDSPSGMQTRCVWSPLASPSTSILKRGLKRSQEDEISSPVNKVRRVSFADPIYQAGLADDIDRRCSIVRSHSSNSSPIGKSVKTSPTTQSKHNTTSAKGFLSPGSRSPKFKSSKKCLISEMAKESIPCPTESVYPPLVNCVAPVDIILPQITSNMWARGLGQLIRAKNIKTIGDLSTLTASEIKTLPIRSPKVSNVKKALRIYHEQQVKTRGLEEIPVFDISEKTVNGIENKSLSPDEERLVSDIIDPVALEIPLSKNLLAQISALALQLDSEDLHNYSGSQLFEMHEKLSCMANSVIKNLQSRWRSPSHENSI

Experiments:
Experiment in all cases: log2 fold change, soluble protein after heating vs DMSO (PISA); higher = thermal stabilisation; K562 lysate, 10 uM; active = over 0.2 and 3.5 SD of the protein, either way, in both replicates (recomputed)
[1] = compound: CS(=O)(=O)CCNCc1ccc(-c2ccc3ncnc(Nc4ccc(OCc5cccc(F)c5)c(Cl)c4)c3c2)o1 [lapatinib]
Procedure, shortened: (§1)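 Following dounce homogenisation of K562 pellets in PBS pH 7.4 with 1 mM MgCl2, crude extract at 1 mg/mL protein was incubated for 30 min with 10 μM compound. Aliquots were then heated for 3 min over 48°C-58°C and pooled, NP-40 was added to 0.5% at 4°C, and soluble protein was recovered as the supernatant at 21,000xg for 90 min. Channel-sum-equalised TMTpro 16plex LC-MS/MS quantified this protein. Each value, from duplicates, is a log-two fold change in thermal stability relative to solvent controls.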

[2] = compound: CS(=O)(=O)N1CCN(Cc2cc3nc(-c4cccc5[nH]ncc45)nc(N4CCOCC4)c3s2)CC1 [pictilisib]
Procedure, shortened: as §1

[3] = compound: C[C@@H](Oc1cc(-c2cnn(C3CCNCC3)c2)cnc1N)c1c(Cl)ccc(F)c1Cl [crizotinib]
Procedure, shortened: as §1

[4] = compound: C[C@H](C1=CC=C(C=C1)C(=O)NC2=C3C=CNC3=NC=C2)N
Procedure, shortened: as §1

[5] = compound: C[C@H](Nc1ncnc2nc[nH]c12)c1cc2cccc(Cl)c2c(=O)n1-c1ccccc1 [duvelisib]
Procedure, shortened: as §1

[6] = compound: Cc1cc(Nc2cc(CN3CCOCC3)c3nc(C)c(Cc4ccc(Cl)cc4F)n3n2)n[nH]1 [gandotinib]
Procedure, shortened: as §1

[7] = compound: Cc1cc(Nc2cc(N3CCN(C)CC3)nc(Sc3ccc(NC(=O)C4CC4)cc3)n2)n[nH]1 [tozasertib]
Procedure, shortened: as §1

[8] = compound: Cc1ccc(-n2nc(C(C)(C)C)cc2NC(=O)Nc2ccc(OCCN3CCOCC3)c3ccccc23)cc1 [doramapimod]
Procedure, shortened: as §1

[9] = compound: Cc1ccc(NC(=O)c2ccc(CN3CC[C@H](N(C)C)C3)c(C(F)(F)F)c2)cc1Nc1nccc(-c2cncnc2)n1 [bafetinib]
Procedure, shortened: as §1

[10] = compound: Cc1cccc(CC(=O)N2CCc3c2ccc(-c2cn(C)c4ncnc(N)c24)c3F)n1
Procedure, shortened: as §1

Measured: log2 fold change

RIC8B isoform 1 (UniProt Q9NVN3)
inactive: [1] 0.008 | [2] 0.016 | [3] -0.002 | [4] 0.038 | [5] -0.137 | [6] -0.064 | [7] 0.051 | [8] 0.031 | [9] -0.122 | [10] 0.03

RPL18A (UniProt Q02543)
inactive: [1] -0.014 | [2] 0.027 | [3] 0.043 | [4] 0.178 | [5] 0.045 | [6] -0.034 | [7] -0.021 | [8] -0.064 | [9] 0.041 | [10] -0.051

RPA2 isoform 3 (UniProt P15927)
inactive: [1] 0.003 | [2] -0.008 | [3] -0.013 | [4] -0.086 | [5] 0.01 | [6] 0.078 | [7] -0.005 | [8] -0.009 | [9] -0.006 | [10] 0.045

RPL21 (UniProt P46778)
inactive: [1] -0.035 | [2] 0.016 | [3] -0.02 | [4] 0.009 | [5] 0.023 | [6] 0.016 | [7] -0.06 | [8] -0.034 | [9] -0.045 | [10] 0.042

RHOG (UniProt P84095)
inactive: [1] -0.032 | [2] 0 | [3] -0.015 | [4] -0.031 | [5] -0.005 | [6] 0.019 | [7] 0.004 | [8] -0.013 | [9] 0.022 | [10] -0.002

RPAP2 (UniProt Q8IXW5)
inactive: [1] 0.026 | [2] -0.005 | [3] -0.055 | [4] -0.073 | [5] 0.054 | [6] -0.017 | [7] 0.009 | [8] 0.01 | [9] -0.029 | [10] 0.06

RHOC (UniProt P08134)
inactive: [1] 0.008 | [2] -0.013 | [3] -0.003 | [4] -0.161 | [5] -0.018 | [6] 0.028 | [7] 0.039 | [8] 0.071 | [9] 0.091 | [10] 0.071

RNF34 isoform 2 (UniProt Q969K3)
inactive: [1] 0.099 | [2] 0.228 | [3] -0.083 | [4] -0.02 | [5] -0.035 | [6] 0.042 | [7] -0.047 | [8] 0.122 | [9] 0.028 | [10] 0.088

RPL13 (UniProt P26373)
inactive: [1] -0.01 | [2] 0.013 | [3] 0.036 | [4] -0.051 | [5] 0.026 | [6] 0 | [7] 0.022 | [8] -0.026 | [9] -0.025 | [10] 0.051

RHOT1 isoform 3 (UniProt Q8IXI2)
inactive: [1] -0.011 | [2] 0.026 | [3] -0.029 | [4] -0.094 | [5] -0.006 | [6] -0.025 | [7] 0.035 | [8] 0.088 | [9] -0.129 | [10] 0.024

RPL12 (UniProt P30050)
inactive: [1] -0.008 | [2] 0.02 | [3] -0.035 | [4] 0.035 | [5] 0.038 | [6] -0.059 | [7] -0.011 | [8] 0.016 | [9] -0.016 | [10] -0.014

Taken from the entries so far (2 entries):
RHOC (UniProt P08134)
inactive: [1] 0.008 | [2] -0.013 | [3] -0.003 | [4] -0.161 | [5] -0.018 | [6] 0.028 | [7] 0.039 | [8] 0.071 | [9] 0.091 | [10] 0.071

RNF34 isoform 2 (UniProt Q969K3)
inactive: [1] 0.099 | [2] 0.228 | [3] -0.083 | [4] -0.02 | [5] -0.035 | [6] 0.042 | [7] -0.047 | [8] 0.122 | [9] 0.028 | [10] 0.088

(cont.)

RNF7 (UniProt Q9UBF6)
inactive: [1] -0.007 | [2] -0.013 | [3] -0.039 | [4] -0.096 | [5] 0.1 | [6] 0.061 | [7] -0.177 | [8] 0.049 | [9] -0.016 | [10] 0.004

RNF121 (UniProt Q9H920)
inactive: [1] -0.033 | [2] -0.092 | [3] -0.069 | [4] -0.137 | [5] -0.013 | [6] 0.124 | [8] 0.03 | [9] -0.014 | [10] 0.014

RIF1 (UniProt Q5UIP0)
inactive: [1] -0.018 | [2] 0.029 | [3] -0.065 | [4] -0.013 | [5] 0.006 | [6] -0.046 | [7] -0.01 | [8] -0.031 | [9] -0.036 | [10] 0.068

RPL17 isoform 3 (UniProt P18621)
inactive: [1] 0.027 | [2] 0.049 | [3] 0.006 | [4] 0.072 | [5] -0.004 | [6] -0.052 | [7] -0.029 | [8] -0.053 | [9] 0.081 | [10] -0.065
